{
  "source": "the supplement of paper PMC8256030",
  "note": "Several values for one entry are separate records, joined by “and”; a condition that tells them apart may be missing. Equal values may be shown once. Where a name gives a salt, the structure may show the parent alone. The list shows a part of the results. Single values are uncertain here, since repeats match poorly.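 HEK293T cells were given each compound shortly before transfection with a reporter in which red mCherry is followed by the SARS-CoV-2 frameshift element and then GFP in the −1 frame, so GFP appears only after frameshifting.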",
  "data": [
    {"tested_on": "SARS-CoV-2 -1 PRF reporter mCherry-FSE-GFP(-1)", "assay": "mCherry (red) intensity as percent of control; higher = higher upstream reporter expression", "conditions": "10 µM; 24 h; HEK293T", "values": [
      {"smiles": "Nc1ncn([C@@H]2O[C@H](CO)[C@@H](O)[C@H]2O)c(=O)n1", "note": "[azacitidine]", "mCherry": "14.5%"},
      {"smiles": "O=C(NCCS(=O)(=O)O)c1cccs1", "note": "[taurosteine]", "mCherry": "104%"},
      {"smiles": "CCOC(=O)[C@H](CCc1ccccc1)N[C@@H](C)C(=O)N1CC2(C[C@H]1C(=O)O)SCCS2", "note": "[Spirapril]", "mCherry": "95.5%"},
      {"smiles": "CNCC(O)c1ccc(O)c(O)c1", "note": "[L-(+)-Epinephrine tartrate]", "mCherry": "85.2%"},
      {"smiles": "CCN1CC(CCN2CCOCC2)C(c2ccccc2)(c2ccccc2)C1=O", "note": "(stereo unspecified)", "mCherry": "93.1%"},
      {"smiles": "CC(OCCN1CCCCCC1)(c1ccccc1)c1ccc(Cl)cc1", "note": "(stereo unspecified) [setastine]", "mCherry": "120%"},
      {"smiles": "CC(C)NCC(O)c1cc(O)cc(O)c1", "note": "(stereo unspecified) [orciprenaline]", "mCherry": "81.8%"},
      {"smiles": "CO[C@H]1/C=C/O[C@@]2(C)Oc3c(C)c(O)c4c(O)c(cc(O)c4c3C2=O)NC(=O)/C(C)=C\\C=C\\[C@H](C)[C@H](O)[C@@H](C)[C@@H](O)[C@@H](C)[C@H](OC(C)=O)[C@@H]1C", "mCherry": "67.2%"},
      {"smiles": "Oc1ncnc2[nH]ncc12", "mCherry": "84.6%"},
      {"smiles": "CCn1cc(C(=O)O)c(=O)c2cc(F)c(N3CCN(C)CC3)cc21", "note": "[Pefloxacine mesylate dihydrate]", "mCherry": "52.2%"},
      {"smiles": "CC[C@]1(O)C[C@@H]2CN(CCc3c([nH]c4ccccc34)[C@@](C(=O)OC)(c3cc4c(cc3OC)N(C)[C@H]3[C@@](O)(C(=O)OC)[C@H](OC(C)=O)[C@]5(CC)C=CCN6CC[C@]43[C@@H]65)C2)C1", "note": "[vinblastine]", "mCherry": "74%"},
      {"smiles": "O=C(CCCN1CCC(O)(c2ccc(Br)cc2)CC1)c1ccc(F)cc1", "note": "[bromperidol]", "mCherry": "105%"},
      {"smiles": "CN(C)CCOC(C)(c1ccccc1)c1ccc(Br)cc1", "note": "(stereo unspecified) [embramine]", "mCherry": "62.7%"},
      {"smiles": "O=S1(=O)CCN(CN2CCS(=O)(=O)NC2)CN1", "note": "[taurolidine]", "mCherry": "70%"},
      {"smiles": "C=C1CCO[C@]2([C@@H](O)[C@@](C)(O)CO)NC(=O)[C@@]1(O)NC2=O", "note": "[bicozamycin]", "mCherry": "93%"},
      {"smiles": "Cc1ccc(F)cc1C(=O)Nc1ccc(C(=O)N2Cc3cccn3Cc3ccccc32)c(Cl)c1", "note": "[lixivaptan]", "mCherry": "39.4%"},
      {"smiles": "C[C@@H](c1nc(-c2ccc(C#N)cc2)cs1)[C@](O)(Cn1cncn1)c1ccc(F)cc1F", "note": "[ravuconazole]", "mCherry": "40.5%"},
      {"smiles": "COc1ccc2c(c1)N(CCCN(C)C)c1ccccc1S2", "note": "[methopromazine]", "mCherry": "72.7%"},
      {"smiles": "C[C@H]1O[C@@H](O[C@H]2[C@@H](O)C[C@H](O[C@H]3[C@@H](O)C[C@H](O[C@H]4CC[C@@]5(C)[C@H](CC[C@@H]6[C@@H]5C[C@@H](O)[C@]5(C)[C@@H](C7=CC(=O)OC7)CC[C@]65O)C4)O[C@@H]3C)O[C@@H]2C)C[C@H](O)[C@@H]1O", "note": "[digoxin]", "mCherry": "3350%"},
      {"smiles": "CC[C@@]1(O)C[C@H](O[C@H]2C[C@H](N(C)C)[C@H](O[C@H]3C[C@H](O)[C@H](O[C@H]4CCC(=O)[C@H](C)O4)[C@H](C)O3)[C@H](C)O2)c2c(cc3c(c2O)C(=O)c2c(O)cccc2C3=O)[C@H]1C(=O)OC", "note": "[Aclarubicin]", "mCherry": "93.2%"},
      {"smiles": "O=C(NC[C@H]1CN(c2ccc(N3CCOCC3=O)cc2)C(=O)O1)c1ccc(Cl)s1", "note": "[Rivaroxaban]", "mCherry": "89.9%"},
      {"smiles": "C[C@H]1CN(C[C@H](Cc2ccccc2)C(=O)NCC(=O)O)CC[C@@]1(C)c1cccc(O)c1", "note": "[Entereg]", "mCherry": "114%"},
      {"smiles": "CC(C)[C@H](N)C(=O)OCC(CO)OCn1cnc2c(=O)nc(N)[nH]c21", "note": "(stereo partly specified)", "mCherry": "99.9%"},
      {"smiles": "CC(C)(C)CC(C)(C)c1ccc(O)c(-n2nc3ccccc3n2)c1", "note": "[octrizole]", "mCherry": "88.6%"},
      {"smiles": "CC(C)(O)CC(C)(O)c1ccc(Cl)cc1", "note": "(stereo unspecified) [fenpentadiol]", "mCherry": "102%"},
      {"smiles": "CC(=O)O[C@H]1C[C@H](O[C@H]2[C@@H](O)C[C@H](O[C@H]3[C@@H](O)C[C@H](O[C@H]4CC[C@@]5(C)[C@H](CC[C@@H]6[C@@H]5CC[C@]5(C)[C@@H](C7=CC(=O)OC7)CC[C@]65O)C4)O[C@@H]3C)O[C@@H]2C)O[C@H](C)[C@H]1O", "note": "[acetyldigitoxin]", "mCherry": "1630%"},
      {"smiles": "CCN(CC)CC#CCOC(=O)C(O)(c1ccccc1)C1CCCCC1", "note": "(stereo unspecified) [oxybutynin]", "mCherry": "114%"},
      {"smiles": "CC(C)(O)C(C)(O)c1ccc(Cl)cc1", "note": "(stereo unspecified) [phenaglycodol]", "mCherry": "72.2%"},
      {"smiles": "COC(=O)Nc1nc2cc(C(=O)c3ccc(F)cc3)ccc2[nH]1", "note": "[Flubendazole]", "mCherry": "77.8% and 57.8%"},
      {"smiles": "CCc1nc(N)nc(N)c1-c1ccc(Cl)cc1", "note": "[pyrimethamine]", "mCherry": "104%"},
      {"smiles": "CCCCCC(=O)O[C@]1(C(C)=O)CC[C@H]2[C@@H]3CCC4=CC(=O)CC[C@]4(C)[C@H]3CC[C@@]21C", "note": "[hydroxyprogesterone caproate]", "mCherry": "81.4% and 87.1%"}
    ]}
  ]
}
